# Experimental data from the supplement of paper PMC10849652.
# Sequences of proteins named here, by UniProt entry; tags and fusion partners are left off. A change or cut given only in a name is not applied to a line headed by its entry.
# UniProt Q6KCM7: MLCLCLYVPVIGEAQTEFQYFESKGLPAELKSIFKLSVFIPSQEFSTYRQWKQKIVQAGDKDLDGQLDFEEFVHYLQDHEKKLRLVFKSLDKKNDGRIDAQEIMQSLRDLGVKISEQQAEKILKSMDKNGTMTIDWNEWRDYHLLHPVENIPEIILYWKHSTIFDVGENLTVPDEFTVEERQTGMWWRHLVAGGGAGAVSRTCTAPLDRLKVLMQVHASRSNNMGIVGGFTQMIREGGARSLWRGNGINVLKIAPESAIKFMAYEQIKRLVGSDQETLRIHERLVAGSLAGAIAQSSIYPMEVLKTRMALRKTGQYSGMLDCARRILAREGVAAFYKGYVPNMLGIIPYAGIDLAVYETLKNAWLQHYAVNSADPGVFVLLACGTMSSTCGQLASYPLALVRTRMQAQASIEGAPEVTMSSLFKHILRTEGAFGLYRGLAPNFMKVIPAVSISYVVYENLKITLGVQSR
# UniProt P11166: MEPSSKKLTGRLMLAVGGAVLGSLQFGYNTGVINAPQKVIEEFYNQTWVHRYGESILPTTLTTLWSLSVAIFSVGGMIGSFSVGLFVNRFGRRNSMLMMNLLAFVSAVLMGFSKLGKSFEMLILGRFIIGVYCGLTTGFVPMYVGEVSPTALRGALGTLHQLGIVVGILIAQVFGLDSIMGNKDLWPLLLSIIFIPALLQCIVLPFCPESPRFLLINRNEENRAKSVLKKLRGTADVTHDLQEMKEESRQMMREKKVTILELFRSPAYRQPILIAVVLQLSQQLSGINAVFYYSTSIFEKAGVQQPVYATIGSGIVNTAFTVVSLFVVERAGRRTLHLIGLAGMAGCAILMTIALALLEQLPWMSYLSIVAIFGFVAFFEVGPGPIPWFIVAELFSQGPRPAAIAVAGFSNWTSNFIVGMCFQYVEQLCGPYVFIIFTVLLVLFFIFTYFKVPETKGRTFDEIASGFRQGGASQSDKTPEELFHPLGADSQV
# UniProt Q8IXU6: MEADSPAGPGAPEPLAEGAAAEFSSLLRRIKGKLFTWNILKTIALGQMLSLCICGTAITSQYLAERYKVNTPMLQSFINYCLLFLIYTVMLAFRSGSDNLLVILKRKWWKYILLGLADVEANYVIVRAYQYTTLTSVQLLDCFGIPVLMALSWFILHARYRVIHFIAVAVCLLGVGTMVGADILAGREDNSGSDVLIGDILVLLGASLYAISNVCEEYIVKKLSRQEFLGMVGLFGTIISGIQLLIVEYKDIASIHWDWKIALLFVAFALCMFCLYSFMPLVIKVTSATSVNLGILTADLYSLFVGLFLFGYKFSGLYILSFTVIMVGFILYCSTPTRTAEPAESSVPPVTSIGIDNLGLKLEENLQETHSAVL
# UniProt P43003, whole entry, looked up: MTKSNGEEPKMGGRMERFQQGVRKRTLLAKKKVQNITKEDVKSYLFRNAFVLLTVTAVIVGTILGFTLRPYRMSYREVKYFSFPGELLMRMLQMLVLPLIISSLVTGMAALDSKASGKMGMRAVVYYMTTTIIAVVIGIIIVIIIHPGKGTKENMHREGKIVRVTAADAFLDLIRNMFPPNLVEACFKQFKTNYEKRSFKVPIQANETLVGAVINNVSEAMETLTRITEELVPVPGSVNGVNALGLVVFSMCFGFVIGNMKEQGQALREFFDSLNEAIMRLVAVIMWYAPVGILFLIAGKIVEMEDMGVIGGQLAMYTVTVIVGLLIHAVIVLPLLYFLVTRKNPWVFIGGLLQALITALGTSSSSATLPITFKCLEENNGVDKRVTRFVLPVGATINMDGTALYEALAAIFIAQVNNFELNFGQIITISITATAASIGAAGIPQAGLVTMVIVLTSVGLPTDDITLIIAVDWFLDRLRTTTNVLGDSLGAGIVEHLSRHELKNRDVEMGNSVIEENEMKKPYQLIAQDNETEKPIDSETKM
# UniProt P48029: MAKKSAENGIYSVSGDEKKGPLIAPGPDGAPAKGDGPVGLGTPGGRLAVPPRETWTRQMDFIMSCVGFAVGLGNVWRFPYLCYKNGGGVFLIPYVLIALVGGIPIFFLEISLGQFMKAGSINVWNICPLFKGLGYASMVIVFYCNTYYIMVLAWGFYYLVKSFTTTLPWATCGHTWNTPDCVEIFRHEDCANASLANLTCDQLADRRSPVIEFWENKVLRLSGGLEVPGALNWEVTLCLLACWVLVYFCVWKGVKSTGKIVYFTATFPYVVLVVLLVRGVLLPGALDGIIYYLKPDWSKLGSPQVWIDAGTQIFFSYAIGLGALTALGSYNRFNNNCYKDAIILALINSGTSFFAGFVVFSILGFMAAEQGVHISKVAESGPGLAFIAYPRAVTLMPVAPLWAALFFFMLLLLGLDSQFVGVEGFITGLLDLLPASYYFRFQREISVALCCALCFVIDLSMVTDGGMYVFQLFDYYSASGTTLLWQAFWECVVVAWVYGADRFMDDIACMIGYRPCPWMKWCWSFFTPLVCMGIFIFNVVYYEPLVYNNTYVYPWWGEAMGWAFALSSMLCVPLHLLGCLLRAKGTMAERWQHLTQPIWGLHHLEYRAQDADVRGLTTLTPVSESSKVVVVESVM
# UniProt P55011: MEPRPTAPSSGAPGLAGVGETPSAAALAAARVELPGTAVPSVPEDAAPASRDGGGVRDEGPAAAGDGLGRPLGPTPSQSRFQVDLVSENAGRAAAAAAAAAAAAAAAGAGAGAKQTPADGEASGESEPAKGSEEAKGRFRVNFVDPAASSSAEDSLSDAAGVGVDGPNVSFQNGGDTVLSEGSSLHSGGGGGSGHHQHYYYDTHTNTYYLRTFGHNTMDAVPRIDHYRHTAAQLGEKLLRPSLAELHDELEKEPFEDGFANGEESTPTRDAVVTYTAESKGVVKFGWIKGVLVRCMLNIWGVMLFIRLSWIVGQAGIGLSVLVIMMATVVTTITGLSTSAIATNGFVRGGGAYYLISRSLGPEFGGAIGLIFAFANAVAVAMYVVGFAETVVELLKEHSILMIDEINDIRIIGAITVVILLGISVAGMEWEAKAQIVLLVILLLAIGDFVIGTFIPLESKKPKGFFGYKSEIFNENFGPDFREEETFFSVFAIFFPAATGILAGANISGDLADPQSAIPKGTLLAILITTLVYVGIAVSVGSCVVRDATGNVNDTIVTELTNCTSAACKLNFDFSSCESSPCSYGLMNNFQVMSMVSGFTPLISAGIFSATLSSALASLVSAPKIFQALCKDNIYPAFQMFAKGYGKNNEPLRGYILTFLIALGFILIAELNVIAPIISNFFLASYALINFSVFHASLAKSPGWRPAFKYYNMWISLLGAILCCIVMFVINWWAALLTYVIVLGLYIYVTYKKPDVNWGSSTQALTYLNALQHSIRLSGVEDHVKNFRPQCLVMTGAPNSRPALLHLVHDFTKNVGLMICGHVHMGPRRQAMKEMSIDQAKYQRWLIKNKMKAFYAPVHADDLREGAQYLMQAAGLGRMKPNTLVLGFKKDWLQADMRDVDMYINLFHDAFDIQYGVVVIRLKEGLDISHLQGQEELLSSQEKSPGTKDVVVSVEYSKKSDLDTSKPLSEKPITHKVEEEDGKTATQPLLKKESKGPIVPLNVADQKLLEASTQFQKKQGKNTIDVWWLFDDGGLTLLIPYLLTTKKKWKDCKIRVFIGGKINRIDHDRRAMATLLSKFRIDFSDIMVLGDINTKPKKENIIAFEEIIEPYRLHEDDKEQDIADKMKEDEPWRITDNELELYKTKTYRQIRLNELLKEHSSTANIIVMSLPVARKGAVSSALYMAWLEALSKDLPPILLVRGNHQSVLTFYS
# UniProt Q96QD8: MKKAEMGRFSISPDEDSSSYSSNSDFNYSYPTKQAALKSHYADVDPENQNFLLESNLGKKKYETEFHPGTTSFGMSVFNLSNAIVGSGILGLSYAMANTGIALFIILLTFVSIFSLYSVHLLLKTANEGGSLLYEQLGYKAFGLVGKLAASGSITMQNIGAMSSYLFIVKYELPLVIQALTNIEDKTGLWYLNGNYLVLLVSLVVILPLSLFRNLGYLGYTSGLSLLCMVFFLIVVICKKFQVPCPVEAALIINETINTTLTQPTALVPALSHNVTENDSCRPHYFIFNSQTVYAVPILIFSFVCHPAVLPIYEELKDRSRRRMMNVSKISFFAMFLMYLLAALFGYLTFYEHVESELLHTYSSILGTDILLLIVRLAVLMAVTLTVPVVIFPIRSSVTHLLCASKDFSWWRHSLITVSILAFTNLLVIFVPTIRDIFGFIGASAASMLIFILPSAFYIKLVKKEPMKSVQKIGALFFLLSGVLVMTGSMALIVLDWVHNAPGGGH
# UniProt P12236: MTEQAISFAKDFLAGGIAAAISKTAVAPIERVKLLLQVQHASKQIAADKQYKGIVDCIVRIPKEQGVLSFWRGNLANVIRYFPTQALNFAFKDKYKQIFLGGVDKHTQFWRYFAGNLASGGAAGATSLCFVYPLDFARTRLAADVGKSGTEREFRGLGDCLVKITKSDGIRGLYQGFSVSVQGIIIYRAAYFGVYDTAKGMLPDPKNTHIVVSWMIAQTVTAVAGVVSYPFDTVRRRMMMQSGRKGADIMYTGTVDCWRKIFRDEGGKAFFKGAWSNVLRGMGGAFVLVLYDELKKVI
# UniProt P05141: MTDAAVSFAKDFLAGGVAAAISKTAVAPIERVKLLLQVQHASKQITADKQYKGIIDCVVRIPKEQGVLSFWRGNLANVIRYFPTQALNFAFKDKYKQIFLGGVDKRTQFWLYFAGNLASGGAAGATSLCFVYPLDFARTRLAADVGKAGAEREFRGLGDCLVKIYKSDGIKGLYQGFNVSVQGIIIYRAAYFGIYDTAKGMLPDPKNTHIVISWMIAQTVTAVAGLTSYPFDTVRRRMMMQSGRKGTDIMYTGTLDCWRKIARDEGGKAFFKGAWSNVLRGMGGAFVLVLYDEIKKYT
# UniProt Q6PML9: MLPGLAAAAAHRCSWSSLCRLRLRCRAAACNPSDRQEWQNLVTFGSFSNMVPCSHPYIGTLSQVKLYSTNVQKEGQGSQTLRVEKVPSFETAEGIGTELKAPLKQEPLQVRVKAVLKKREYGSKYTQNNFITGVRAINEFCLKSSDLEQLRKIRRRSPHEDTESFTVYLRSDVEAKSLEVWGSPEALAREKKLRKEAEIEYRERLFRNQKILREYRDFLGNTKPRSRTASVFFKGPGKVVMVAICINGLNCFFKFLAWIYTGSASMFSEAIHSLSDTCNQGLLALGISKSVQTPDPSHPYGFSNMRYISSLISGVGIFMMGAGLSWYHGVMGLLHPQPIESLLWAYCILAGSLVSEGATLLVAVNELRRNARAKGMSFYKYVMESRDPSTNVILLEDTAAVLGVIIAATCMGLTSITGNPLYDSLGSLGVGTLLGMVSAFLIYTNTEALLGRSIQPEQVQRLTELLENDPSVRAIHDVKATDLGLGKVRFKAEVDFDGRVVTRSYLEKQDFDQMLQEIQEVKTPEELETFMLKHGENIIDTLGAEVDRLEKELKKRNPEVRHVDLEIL
# UniProt Q6NT16: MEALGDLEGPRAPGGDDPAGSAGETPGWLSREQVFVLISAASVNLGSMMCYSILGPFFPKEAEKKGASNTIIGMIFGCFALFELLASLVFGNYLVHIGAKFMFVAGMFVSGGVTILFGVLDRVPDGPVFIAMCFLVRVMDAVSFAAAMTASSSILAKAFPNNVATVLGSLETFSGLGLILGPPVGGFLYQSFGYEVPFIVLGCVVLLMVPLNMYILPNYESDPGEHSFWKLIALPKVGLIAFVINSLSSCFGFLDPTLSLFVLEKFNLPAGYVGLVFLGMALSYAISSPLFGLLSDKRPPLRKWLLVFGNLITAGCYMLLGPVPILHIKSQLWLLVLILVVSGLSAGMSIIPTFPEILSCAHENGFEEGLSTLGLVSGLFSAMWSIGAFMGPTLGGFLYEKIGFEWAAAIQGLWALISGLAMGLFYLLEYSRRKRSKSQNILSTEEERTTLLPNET
# UniProt P53985: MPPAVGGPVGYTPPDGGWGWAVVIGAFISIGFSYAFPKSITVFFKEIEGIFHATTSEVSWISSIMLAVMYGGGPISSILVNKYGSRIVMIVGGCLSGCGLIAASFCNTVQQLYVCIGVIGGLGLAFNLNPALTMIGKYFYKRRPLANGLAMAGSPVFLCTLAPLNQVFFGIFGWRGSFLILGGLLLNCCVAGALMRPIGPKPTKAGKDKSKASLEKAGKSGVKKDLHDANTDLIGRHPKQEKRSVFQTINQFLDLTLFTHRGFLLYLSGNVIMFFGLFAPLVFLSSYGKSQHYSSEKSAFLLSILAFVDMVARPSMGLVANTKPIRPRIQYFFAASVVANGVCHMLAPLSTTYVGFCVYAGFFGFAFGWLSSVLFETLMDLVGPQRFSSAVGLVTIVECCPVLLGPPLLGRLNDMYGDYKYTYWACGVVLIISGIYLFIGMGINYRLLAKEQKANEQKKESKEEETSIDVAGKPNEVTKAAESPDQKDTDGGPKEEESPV
# The list shows a part of the results.
# Tests used:
# Assay in all cases: log2 fold change, soluble protein after heating vs DMSO (PISA); higher = thermal stabilisation; K562 cells, 10 uM, 30 min; active = over 0.2 and 3.5 SD of the protein, either way, in both replicates (recomputed)
# erlotinib = compound: C#Cc1cccc(Nc2ncnc3cc(OCCOC)c(OCCOC)cc23)c1 [erlotinib]
# Procedure, shortened: (§1)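 K562 cells at 2×10^6 cells/mL were given 10 μM compound for 30 min. Aliquots then went through 3 min of heating across 48°C-58°C, were pooled, and were extracted in PBS with 0.5% NP-40 at 4°C, and the supernatant after 21,000xg for 90 min was quantified by TMTpro 16plex LC-MS/MS with channel sums equalised. Thermal stability relative to control samples, from duplicates, is given as log2 fold change.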
# [1] = compound: C/C(=N\NC(=O)C1=CC(=CC=C1)S(=O)(=O)N2CCOCC2)/C3=C(C=CC(=C3)Cl)O
# Procedure, shortened: as §1
# [2] = compound: C1=CC(=C(C=C1Cl)C2=NC3=NC=CN=C3C(=N2)NC4=CC=NC=C4)F
# Procedure, shortened: as §1
# [3] = compound: C1=CC(=CC=C1C2=NC3=C(N2)C=C(C=C3)C(=O)N)OC4=CC=C(C=C4)Cl
# Procedure, shortened: as §1
# [4] = compound: C1=CC2=C(C=CC(=C2)/C=C\3/C(=O)NC(=NCC4=CC=CS4)S3)N=C1
# Procedure, shortened: as §1
# [5] = compound: C1=CC2=NC=CN=C2C=C1/C=C/3\C(=O)NC(=O)S3
# Procedure, shortened: as §1
# [6] = compound: C1=CC=C(C=C1)C2=NC(=C(N2)C3=CC=NC=C3)C4=CC(=C(C=C4)Cl)O
# Procedure, shortened: as §1
# [7] = compound: C1=CC=C2C(=C1)C3=NNC4=CC=CC(=C43)C2=O
# Procedure, shortened: as §1
# [8] = compound: C1CCN(C1)C(=O)NC2=CC=CC(=C2)NC3=NC=C(C(=N3)NCCC4=CN=CN4)Br
# Procedure, shortened: as §1
# [9] = compound: C1CN(CCC1(CC2=CC=C(C=C2)Cl)N)C3=NC=NC4=C3C=CN4
# Procedure, shortened: as §1
Target,log2 fold change (erlotinib),log2 fold change [1],log2 fold change [2],log2 fold change [3],log2 fold change [4],log2 fold change [5],log2 fold change [6],log2 fold change [7],log2 fold change [8],log2 fold change [9]
SLC39A3 (UniProt Q9BRY0),inactive: -0.042,inactive: 0.075,inactive: -0.054,inactive: 0.054,inactive: 0.087,inactive: 0.06,inactive: -0.032,inactive: -0.067,inactive: -0.007,inactive: -0.011
SLC39A6 (UniProt Q13433),inactive: -0.017,inactive: -0.015,inactive: 0.047,inactive: 0.081,inactive: -0.012,inactive: -0.024,inactive: -0.008,inactive: -0.002,inactive: 0.007,inactive: 0.124
SLC25A25 isoform 3 (UniProt Q6KCM7),inactive: 0.004,inactive: 0.01,inactive: 0.063,inactive: 0.032,inactive: -0.001,inactive: 0.028,inactive: -0.022,inactive: -0.034,inactive: 0.025,inactive: 0.035
SLC35F6 (UniProt Q8N357),inactive: 0.12,inactive: -0.078,inactive: -0.008,inactive: -0.067,inactive: -0.013,inactive: -0.047,active: 0.417,inactive: -0.024,inactive: -0.057,inactive: 0.122
SLC2A1 (UniProt P11166),inactive: -0.037,inactive: 0.013,inactive: 0,inactive: -0.054,inactive: -0.013,inactive: 0.016,inactive: -0.012,inactive: -0.081,inactive: 0.002,inactive: 0.076
SLC35F2 (UniProt Q8IXU6),inactive: -0.001,inactive: 0.017,inactive: 0.087,inactive: 0.006,inactive: 0.006,inactive: 0.069,inactive: 0.08,inactive: -0.024,inactive: -0.021,inactive: 0.167
SLC12A4 (UniProt Q9UP95),inactive: 0.02,inactive: -0.027,inactive: 0.05,inactive: 0.018,inactive: 0.006,inactive: 0.152,inactive: 0.032,inactive: -0.063,inactive: -0.079,inactive: 0.1
SLC27A1 (UniProt Q6PCB7),inactive: -0.003,inactive: -0.053,inactive: 0.055,inactive: -0.008,inactive: 0.061,inactive: 0,inactive: 0.016,inactive: 0.012,active: -0.411,inactive: -0.064
SLC1A3 (UniProt P43003),inactive: 0.025,inactive: 0.017,inactive: 0.194,inactive: 0.053,inactive: -0.169,inactive: 0.001,inactive: 0.007,inactive: 0.012,inactive: 0.05,inactive: 0.163
SLC6A8 (UniProt P48029),inactive: 0.026,inactive: 0.021,inactive: 0.051,inactive: 0.041,inactive: -0.044,inactive: 0.126,inactive: 0.003,inactive: -0.028,inactive: -0.003,inactive: 0.035
SLC25A11 (UniProt Q02978),inactive: -0.007,inactive: -0.012,inactive: 0.034,inactive: 0.017,inactive: -0.012,inactive: 0.039,inactive: -0.009,inactive: -0.042,inactive: 0.002,inactive: 0.053
SLC12A2 (UniProt P55011),inactive: 0.002,inactive: 0.045,inactive: 0.019,inactive: 0.016,inactive: 0.024,inactive: 0.001,inactive: 0.006,inactive: -0.06,inactive: -0.05,inactive: 0.076
SLC38A2 (UniProt Q96QD8),inactive: -0.093,inactive: 0.075,inactive: 0.01,inactive: 0.003,inactive: -0.039,inactive: 0.093,inactive: 0.055,inactive: 0,inactive: -0.009,inactive: 0.048
SLC20A2 (UniProt Q08357),inactive: -0.058,inactive: 0.05,inactive: 0.044,inactive: -0.046,inactive: 0.029,inactive: 0.016,inactive: 0.003,inactive: -0.032,inactive: 0.014,inactive: 0.004
SLC25A6 (UniProt P12236),inactive: -0.023,inactive: 0.018,inactive: -0.025,inactive: 0.014,inactive: 0.028,inactive: 0.016,inactive: -0.042,inactive: -0.003,inactive: -0.004,inactive: 0.015
SLC7A11 (UniProt Q9UPY5),inactive: -0.093,inactive: -0.021,inactive: 0.145,inactive: 0.048,inactive: 0.034,inactive: 0.05,inactive: 0.016,inactive: -0.015,inactive: -0.024,inactive: 0.072
SLC25A5 (UniProt P05141),inactive: 0.036,inactive: -0.086,inactive: -0.001,inactive: 0.006,inactive: -0.126,inactive: 0.005,inactive: 0.099,inactive: 0.096,inactive: -0.045,inactive: 0.133
SLC30A9 (UniProt Q6PML9),inactive: 0.042,inactive: 0.002,inactive: 0.057,inactive: -0.012,inactive: 0.03,inactive: -0.035,inactive: -0.07,inactive: 0.021,inactive: -0.083,inactive: 0.03
SLC2A13 (UniProt Q96QE2),inactive: 0.205,inactive: 0.118,inactive: 0.162,inactive: -0.038,inactive: 0.111,inactive: 0.233,inactive: -0.028,inactive: -0.105,inactive: -0.041,inactive: -0.049
SLC29A1 isoform 2 (UniProt Q99808),inactive: -0.015,inactive: 0.025,inactive: 0.014,inactive: 0.055,inactive: 0.01,inactive: 0.043,inactive: 0.079,inactive: -0.071,inactive: -0.057,inactive: 0.07
SLC18B1 (UniProt Q6NT16),inactive: -0.011,inactive: -0.09,inactive: 0.067,inactive: 0.06,inactive: 0.108,inactive: 0,inactive: 0.12,inactive: 0.002,inactive: -0.037,inactive: 0.081
SLC4A1AP (UniProt Q9BWU0),inactive: 0.011,inactive: 0.044,inactive: -0.025,inactive: -0.003,inactive: 0.067,inactive: 0.029,inactive: -0.002,inactive: -0.026,inactive: -0.032,inactive: -0.013
SLC25A38 (UniProt Q96DW6),inactive: 0.007,inactive: -0.001,inactive: -0.023,inactive: -0.036,inactive: 0.129,inactive: 0.054,inactive: 0.023,inactive: 0.005,inactive: -0.005,inactive: 0.055
SLC45A4 isoform 3 (UniProt Q5BKX6),inactive: 0.021,inactive: 0,inactive: -0.12,inactive: -0.007,inactive: -0.011,inactive: 0.065,inactive: -0.151,inactive: -0.036,inactive: -0.086,inactive: 0.043
SLC30A10 (UniProt Q6XR72),inactive: 0.033,inactive: 0.068,inactive: -0.06,inactive: 0.001,inactive: 0.077,inactive: 0.008,inactive: 0.025,inactive: -0.003,inactive: -0.054,inactive: 0.115
SLC16A1 (UniProt P53985),inactive: -0.014,inactive: -0.042,inactive: 0.042,inactive: -0.007,inactive: 0.071,inactive: -0.009,inactive: -0.039,inactive: -0.077,inactive: 0,inactive: 0.091
SLC3A2 (UniProt F5GZS6),inactive: 0.136,inactive: -0.038,inactive: -0.037,inactive: 0.019,inactive: -0.238,inactive: 0.059,inactive: 0.168,inactive: -0.037,inactive: 0.132,inactive: 0.059

# Looked up one by one from the list above (two):
Target,log2 fold change (erlotinib),log2 fold change [1],log2 fold change [2],log2 fold change [3],log2 fold change [4],log2 fold change [5],log2 fold change [6],log2 fold change [7],log2 fold change [8],log2 fold change [9]
SLC18B1 (UniProt Q6NT16),inactive: -0.011,inactive: -0.09,inactive: 0.067,inactive: 0.06,inactive: 0.108,inactive: 0,inactive: 0.12,inactive: 0.002,inactive: -0.037,inactive: 0.081
SLC45A4 isoform 3 (UniProt Q5BKX6),inactive: 0.021,inactive: 0,inactive: -0.12,inactive: -0.007,inactive: -0.011,inactive: 0.065,inactive: -0.151,inactive: -0.036,inactive: -0.086,inactive: 0.043
